Results reported in PubChem BioAssay AID853 (Columbia University Molecular Screening Center, 2007).
The other results are listed elsewhere or left out. Some of these compounds have results that are not shown, active ones among them.

Test: clearance of mutant huntingtin inclusions, primary screen, imaging, HeLa Exon1htt(103Q)mCFP, confocal imaging (AID 853);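 also: cells exposed to compound for three days before fixation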
Conditions: aggregate imaging, measured here: aggregate grain fluorescence fraction, at 1.5 µM, stronger effect = lower value
For `CN(C)c1cccc(C(=O)NCC2(N(C)C)CCCCC2)c1`, the fraction fluorescence in grains was 34.6.
